# Data as given in PubChem BioAssay AID504764 (Drosophila RNAi Screening Center, 2011).
# Test: 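Genes whose knock-down alters Notch-dependent transcription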 (primary screen)
# Cells: Drosophila Kc167 cells
# Reagent: long dsRNA against Drosophila genes
# Time to read-out: about 5 days (4 days dsRNA, then 24 h after transfection)
# Challenge: transfection of constitutively active membrane-tethered Notch lacking the extracellular domain, read 24 h later
# Read-out: 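Light from a Notch-responsive E(spl)m3 luciferase reporter under active Notch, with control-promoter and no-Notch reporter wells to normalise; raw counts from paired wells a and b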
# Direction: induced reporter light, run 1, well a and induced reporter light, run 1, well b: higher = more light from the Notch target reporter with active Notch; control promoter light, run 1, well a and control promoter light, run 1, well b: higher = more light from the viral control promoter (cell number, transfection, viability); uninduced reporter light, run 1, well a: higher = more light from the Notch target reporter without active Notch
# Active means: 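Wells with low control signal or poorly matching duplicates excluded; duplicates averaged; per source plate, z beyond ±2 for induced/control log2 ratio or beyond ±1.8 for induced/uninduced marks a hit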
# Meaning of the calls: active = modifier hit (raised or lowered Notch signal); inactive = not a hit
# The screen tested about 22,000 reagents; below is a random part of those that have a named target and a result. Of all reagents, 403 (1.9%) got an active call. 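Unnormalised raw counts per well; ratio z-scores behind the hit calls and whether each hit raises or lowers signal are not deposited.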 No sequences are given here. The record does not give: the amount of reagent.
"induced reporter light, run 1, well a","induced reporter light, run 1, well b","control promoter light, run 1, well a","control promoter light, run 1, well b","uninduced reporter light, run 1, well a",activity call,target,dsRNA
1.69e5,1.44e5,1.66e5,1.59e5,15035,inactive,CG34292 (GeneID 5740196),DRSC13807
1.78e5,1.51e5,1.93e5,1.60e5,7960,inactive,CG32199 (GeneID 40028),DRSC09990
1.53e5,1.62e5,1.03e5,93320,9805,inactive,CG7611 (GeneID 40386),DRSC11840
1.10e5,99125,56755,53340,6725,inactive,RnpS1 (GeneID 41147),DRSC15154
2.25e5,2.18e5,1.94e5,2.01e5,17400,inactive,CG14866 (GeneID 41854),DRSC14989
1.62e5,1.26e5,1.92e5,1.67e5,8255,inactive,CAH2 (GeneID 39390),DRSC10746

2 entries from above, set out differently:
{"target":"RnpS1 (GeneID 41147)","dsRNA":"DRSC15154","induced reporter light, run 1, well a":1.10e5,"induced reporter light, run 1, well b":99125,"control promoter light, run 1, well a":56755,"control promoter light, run 1, well b":53340,"uninduced reporter light, run 1, well a":6725,"activity call":"inactive"}
{"target":"CG14866 (GeneID 41854)","dsRNA":"DRSC14989","induced reporter light, run 1, well a":2.25e5,"induced reporter light, run 1, well b":2.18e5,"control promoter light, run 1, well a":1.94e5,"control promoter light, run 1, well b":2.01e5,"uninduced reporter light, run 1, well a":17400,"activity call":"inactive"}

Continued:
"induced reporter light, run 1, well a","induced reporter light, run 1, well b","control promoter light, run 1, well a","control promoter light, run 1, well b","uninduced reporter light, run 1, well a",activity call,target,dsRNA
98010,1.11e5,1.73e5,1.49e5,7705,inactive,CG15719 (GeneID 32249),DRSC19685
73655,71415,57145,51550,4925,inactive,muc (GeneID 34021),DRSC02832
1.81e5,1.69e5,1.81e5,1.79e5,15982,inactive,tRNA:Leu-CAA-2-3 (GeneID 3772601),DRSC13633
1.43e5,1.89e5,2.48e5,1.79e5,18785,inactive,Nhe1 (GeneID 33167),DRSC00762
1.07e5,92030,1.18e5,89630,6150,inactive,CG6592 (GeneID 38687),DRSC10669
1.02e5,95140,1.17e5,1.10e5,12185,inactive,Cnx14D (GeneID 32620),DRSC20214
1.24e5,1.33e5,1.78e5,1.57e5,9640,inactive,CG8157 (GeneID 36700),DRSC07085
,,,,,inactive,CG8157 (GeneID 36700),DRSC21595
1.71e5,1.82e5,2.56e5,2.12e5,11765,inactive,CG17839 (GeneID 39616),DRSC10290
1.97e5,1.75e5,2.13e5,2.47e5,7850,inactive,CG17839 (GeneID 39616),DRSC10291
1.74e5,1.43e5,2.51e5,2.65e5,9575,inactive,CG6938 (GeneID 39362),DRSC10752
96210,84390,1.00e5,84210,14560,inactive,Rrp47 (GeneID 32558),DRSC20124
1.32e5,1.52e5,1.98e5,1.46e5,8680,active,Patj (GeneID 44100),DRSC08712
1.05e5,1.23e5,1.42e5,85770,6815,inactive,Spt3 (GeneID 41461),DRSC15465
